Measurements as given in article PMC10213629 (2023).
These are yes or no findings as the source states them, for the method shown.

Amino acid sequences for entries named in this document (tags omitted).
UniProt Q51380: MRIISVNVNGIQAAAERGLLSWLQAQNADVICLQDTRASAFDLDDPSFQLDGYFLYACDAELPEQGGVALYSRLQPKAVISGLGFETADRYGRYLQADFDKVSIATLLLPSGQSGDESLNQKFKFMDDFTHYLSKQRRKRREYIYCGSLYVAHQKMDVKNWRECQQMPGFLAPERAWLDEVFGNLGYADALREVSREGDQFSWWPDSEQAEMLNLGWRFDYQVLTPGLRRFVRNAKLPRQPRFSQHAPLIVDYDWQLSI
UniProt Q9HZ71: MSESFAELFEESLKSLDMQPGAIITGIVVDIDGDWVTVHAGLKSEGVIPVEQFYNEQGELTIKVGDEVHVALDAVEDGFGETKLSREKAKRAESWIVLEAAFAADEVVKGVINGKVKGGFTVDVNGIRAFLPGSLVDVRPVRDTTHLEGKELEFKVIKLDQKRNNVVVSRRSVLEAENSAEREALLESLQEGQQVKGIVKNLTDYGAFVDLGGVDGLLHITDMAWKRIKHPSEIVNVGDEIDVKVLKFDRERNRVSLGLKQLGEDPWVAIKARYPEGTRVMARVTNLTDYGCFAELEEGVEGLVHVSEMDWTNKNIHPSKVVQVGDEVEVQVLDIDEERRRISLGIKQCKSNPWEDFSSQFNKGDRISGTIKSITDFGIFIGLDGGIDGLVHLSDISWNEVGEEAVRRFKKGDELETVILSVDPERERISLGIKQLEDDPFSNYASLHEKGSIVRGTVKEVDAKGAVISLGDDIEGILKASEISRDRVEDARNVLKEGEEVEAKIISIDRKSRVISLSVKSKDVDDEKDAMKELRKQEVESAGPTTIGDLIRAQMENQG

Biological target: Crc (catabolite repression control protein), His-tag removed (Pseudomonas aeruginosa PAO1) (UniProt Q51380)
Assay: grating-coupled interferometry; Crc immobilised; Hfq without RNA or ribosomal protein S1 as analyte (negative controls); ES-buffer, 25°C; both purified

With “ribosomal protein S1 (from UniProt Q9HZ71 1-559)” the binding was “no binding”.
